Assay results from article PMC4518314.
These are yes or no findings as the source states them, for the method shown. Binding seen in cells or lysates may run through a third protein. Some entries that bind do so weakly or less than the wild type.

Sequences of proteins named here, by UniProt entry; tags and fusion partners are left off. A change or cut given only in a name is not applied to a line headed by its entry. A line that says so, or that is headed by a name, gives the form on record, which may keep a tag or linker.
UniProt Q7Z434: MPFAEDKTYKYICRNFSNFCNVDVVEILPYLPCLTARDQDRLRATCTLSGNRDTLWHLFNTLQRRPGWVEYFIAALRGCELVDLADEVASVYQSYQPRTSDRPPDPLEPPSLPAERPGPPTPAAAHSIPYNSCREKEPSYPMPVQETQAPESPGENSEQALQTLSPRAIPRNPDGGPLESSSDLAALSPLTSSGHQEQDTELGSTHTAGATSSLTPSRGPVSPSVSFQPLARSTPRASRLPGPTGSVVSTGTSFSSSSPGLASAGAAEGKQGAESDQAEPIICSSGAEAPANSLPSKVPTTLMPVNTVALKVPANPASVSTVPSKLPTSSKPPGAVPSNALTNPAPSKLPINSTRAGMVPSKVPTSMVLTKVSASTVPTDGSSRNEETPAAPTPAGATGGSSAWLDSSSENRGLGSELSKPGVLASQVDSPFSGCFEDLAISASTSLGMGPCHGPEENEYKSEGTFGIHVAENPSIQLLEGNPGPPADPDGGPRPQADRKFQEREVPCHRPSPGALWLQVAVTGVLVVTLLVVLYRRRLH
flag-MAVS-(Region I only) (Q7Z434, form named): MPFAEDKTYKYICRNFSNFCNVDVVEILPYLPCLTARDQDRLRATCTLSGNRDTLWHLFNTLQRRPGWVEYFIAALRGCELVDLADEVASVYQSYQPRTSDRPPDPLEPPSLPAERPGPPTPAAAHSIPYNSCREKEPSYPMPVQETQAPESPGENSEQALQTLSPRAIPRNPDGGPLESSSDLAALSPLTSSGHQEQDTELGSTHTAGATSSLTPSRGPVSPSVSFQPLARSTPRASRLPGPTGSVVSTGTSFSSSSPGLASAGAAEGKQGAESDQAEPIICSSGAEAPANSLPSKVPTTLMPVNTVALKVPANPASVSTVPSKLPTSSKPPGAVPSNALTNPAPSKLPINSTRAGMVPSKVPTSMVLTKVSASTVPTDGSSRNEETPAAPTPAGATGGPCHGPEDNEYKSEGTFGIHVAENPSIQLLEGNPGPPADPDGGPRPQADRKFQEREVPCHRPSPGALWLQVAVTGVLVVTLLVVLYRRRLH
flag-MAVS-(Region II only) (Q7Z434, form named): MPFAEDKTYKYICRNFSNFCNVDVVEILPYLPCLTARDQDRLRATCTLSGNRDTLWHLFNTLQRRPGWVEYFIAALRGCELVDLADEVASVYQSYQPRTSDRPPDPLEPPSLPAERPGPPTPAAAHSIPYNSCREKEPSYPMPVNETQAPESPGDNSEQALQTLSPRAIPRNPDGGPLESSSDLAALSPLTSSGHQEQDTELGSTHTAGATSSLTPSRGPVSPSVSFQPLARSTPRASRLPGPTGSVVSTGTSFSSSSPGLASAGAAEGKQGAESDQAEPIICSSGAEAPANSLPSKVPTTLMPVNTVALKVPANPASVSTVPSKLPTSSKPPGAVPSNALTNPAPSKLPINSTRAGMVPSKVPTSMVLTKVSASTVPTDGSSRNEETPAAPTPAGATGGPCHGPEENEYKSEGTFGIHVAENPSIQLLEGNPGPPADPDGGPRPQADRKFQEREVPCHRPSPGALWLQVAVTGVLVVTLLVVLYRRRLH
flag-MAVS-(Region III only) (Q7Z434, form named): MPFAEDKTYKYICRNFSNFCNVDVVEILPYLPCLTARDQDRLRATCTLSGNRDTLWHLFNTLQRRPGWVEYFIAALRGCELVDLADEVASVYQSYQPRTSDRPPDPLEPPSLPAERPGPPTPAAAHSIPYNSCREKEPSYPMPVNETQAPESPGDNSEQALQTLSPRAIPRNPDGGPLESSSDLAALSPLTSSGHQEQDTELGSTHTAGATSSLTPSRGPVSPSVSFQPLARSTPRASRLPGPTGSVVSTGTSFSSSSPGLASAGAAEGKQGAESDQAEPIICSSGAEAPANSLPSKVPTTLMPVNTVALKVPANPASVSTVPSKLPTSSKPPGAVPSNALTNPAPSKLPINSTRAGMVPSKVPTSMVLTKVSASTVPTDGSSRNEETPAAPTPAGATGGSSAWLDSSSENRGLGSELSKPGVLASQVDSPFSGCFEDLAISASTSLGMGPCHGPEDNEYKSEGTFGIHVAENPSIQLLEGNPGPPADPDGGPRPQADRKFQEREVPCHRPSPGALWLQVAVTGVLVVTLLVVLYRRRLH
UniProt O00463: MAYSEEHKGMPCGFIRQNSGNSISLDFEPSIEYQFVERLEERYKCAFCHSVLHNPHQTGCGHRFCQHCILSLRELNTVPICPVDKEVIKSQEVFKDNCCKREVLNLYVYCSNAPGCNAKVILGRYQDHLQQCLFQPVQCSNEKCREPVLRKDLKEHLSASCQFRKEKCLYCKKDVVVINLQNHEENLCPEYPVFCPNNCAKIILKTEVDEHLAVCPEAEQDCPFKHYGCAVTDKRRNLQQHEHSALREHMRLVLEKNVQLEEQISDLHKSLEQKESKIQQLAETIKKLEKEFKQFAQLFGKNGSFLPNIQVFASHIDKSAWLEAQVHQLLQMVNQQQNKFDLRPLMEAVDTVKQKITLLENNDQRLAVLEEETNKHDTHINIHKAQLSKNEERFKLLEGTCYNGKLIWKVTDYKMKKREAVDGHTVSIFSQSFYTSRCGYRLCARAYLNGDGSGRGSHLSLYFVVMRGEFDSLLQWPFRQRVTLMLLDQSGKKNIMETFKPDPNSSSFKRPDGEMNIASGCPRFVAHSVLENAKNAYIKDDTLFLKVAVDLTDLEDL

Experiments:
Assay in all cases: co-IP
[1] = biological target: flag-MAVS-(Region I only) (human) (UniProt Q7Z434)
[2] = biological target: flag-MAVS-(Region II only) (human) (UniProt Q7Z434)
[3] = biological target: flag-MAVS-(Region III only) (human) (UniProt Q7Z434)

binding [1]: binds | binding [2]: binds | binding [3]: binds
Substance: TRAF5 (endogenous) (from UniProt O00463 1-557)
